In all, about 2,300 compounds were measured (“plate-normalized OD600 growth (mean of duplicates)”: median about 0.29, lowest 2% from about 0.22 on). The list shows a part of the results.
Test system: Escherichia coli BW25113
Assay: plate-normalized OD600 growth (mean of duplicates) (OD600 (normalized)); higher = more growth (less inhibition)
Conditions: 10 µM
Procedure: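 E. coli BW25113 in LB (100 µl, 96-well, no shaking) was exposed to 10 µM of each compound from a ~30,000-member library and grown at 37°C for 24 h or 15°C for 48 h, in duplicate. Growth was read as OD600 and the duplicate ODs were normalized across screening plates to correct plate-to-plate variation. Hits were >3σ below the mean OD600 at 15°C and <2σ below the mean at 37°C.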

SMILES | plate-normalized OD600 growth (temperature: 15°C, 48 h) | plate-normalized OD600 growth (temperature: 37°C, 24 h)
O=c1[nH]c(=O)n(C2OC(CO)C(O)C2O)cc1F (stereo unspecified) | 0.243 | 0.618
COc1ccc(OC)c(C(=O)c2cc(OC)c(OC)c(OC)c2)c1 | 0.26 | 0.656
CCOc1cc(/C=N/NC(=O)CNC(=O)C(c2ccccc2)c2ccccc2)ccc1OC(=O)c1ccccc1 | 0.245 | 0.635
COc1cc(S(=O)(=O)N2CCN(c3c(C)cccc3C)CC2)c(OC)cc1Cl | 0.253 | 0.617
CCOC(=O)c1ccc(N2C(=O)CC(N3CCN(Cc4ccc5c(c4)OCO5)CC3)C2=O)cc1 (stereo unspecified) | 0.242 | 0.617
CC(=O)Nc1cc(-c2ccc(Br)cc2)nn1Cc1ccc(Cl)cc1 | 0.254 | 0.625
N#Cc1c(C2CCCCC2)nc(Sc2ccc(C(F)(F)F)cc2[N+](=O)[O-])[nH]c1=O | 0.258 | 0.619
Cc1c(C(=O)NN)nn(-c2ccccc2)c(=O)c1C#N | 0.242 | 0.624
CN(C)c1ccc(/C=N/NC(=O)c2nnn(-c3nonc3N)c2CSc2nc3ccccc3s2)cc1 | 0.249 | 0.613
Cc1ccc2cc(NC(=O)c3ccco3)ccc2n1 | 0.235 | 0.601
CC1(C)Cc2ccccc2C(CSc2nnc3c(n2)[nH]c2ccccc23)=N1 | 0.245 | 0.608
FC(F)(F)c1ccc(Cl)c(NC(=S)NN=C2CCCCCC2)c1 | 0.245 | 0.624
C/C(Cn1cnc([N+](=O)[O-])n1)=N\NC(=O)c1cccc(C)c1 | 0.249 | 0.621
COC(=O)c1cc(Cl)c(NC(=O)c2ccco2)cc1OC | 0.252 | 0.595
COc1ccc(Nc2nc(Cl)nc(NCCC3=CCCCC3)n2)cc1 | 0.257 | 0.602
NC(N)=NC(N)=Nc1ccc2c(c1)OCCO2 | 0.252 | 0.624
COc1ccc(N=Cc2ccc(-c3ccc(F)cc3)o2)cc1 | 0.244 | 0.616
Cc1ccc(NC(=O)C2CCC(=O)N2C(=O)OCc2ccccc2)cc1 (stereo unspecified) | 0.243 | 0.611
O=C1/C(=C\c2ccc(Cl)cc2Cl)N=C(c2ccccc2)N1C1CC1 | 0.241 | 0.577
N#CC1COc2ccccc2O1 (stereo unspecified) | 0.259 | 0.649
O=C1OC2COC(=O)C2C=C1NC(=O)c1ccc(Cl)cc1 (stereo unspecified) | 0.25 | 0.613
O=C1C(Cl)=C(Oc2cc(Cl)c(Cl)cc2Cl)C(=O)c2ccccc21 | 0.211 | 0.613
CCOC(=O)/C(C#N)=C/Nc1ccc2c(c1)OCO2 | 0.264 | 0.649
CCCN(CCNN1C(=O)/C(=C/c2ccc(O)cc2)N=C1c1ccccc1)c1c(Cl)cc(C(F)(F)F)cc1Cl | 0.238 | 0.62
O=C(NCCSCc1ccco1)c1ccc(Cl)cc1 | 0.25 | 0.605

SMILES | plate-normalized OD600 growth (temperature: 15°C, 48 h) | plate-normalized OD600 growth (temperature: 37°C, 24 h)
CCOC(=O)c1ccc2nc(NC(=O)CSc3nc(C)cc(C)n3)sc2c1 | 0.254 | 0.613
Cc1ccc(Cl)cc1NC(=S)N(CCC#N)/N=C\c1ccc2c(c1)OCO2 | 0.227 | 0.611
CCn1nc(C)cc1C(=O)O | 0.259 | 0.636
Cc1ccc2[nH]c(C)c(CCNS(=O)(=O)c3ccc(C)c(C)c3C)c2c1 | 0.219 | 0.596
COc1ccc(N2C(=O)CC(NCc3ccco3)C2=O)cc1 (stereo unspecified) | 0.252 | 0.614
Cn1nnnc1SCCNS(=O)(=O)c1ccccc1 | 0.247 | 0.613
Cc1nc(SCC(=O)Nc2nc(-c3ccc(Br)cc3)cs2)n[nH]1 | 0.247 | 0.607
Clc1nc2ccc(Br)cc2cc1C1CC(c2ccc(Br)cc2)=NN1 (stereo unspecified) | 0.26 | 0.615
O=C(O)c1ccc(Br)c(NC(=O)C2C3C=CC(C3)C2C(=O)O)c1 (stereo unspecified) | 0.248 | 0.604
COc1cc2c(cc1OC)C(=NCCCCCC(=O)O)NC(C)(C)C2 | 0.246 | 0.62
C=CCn1c(C(CC)CC(C)(C)O)n[nH]c1=S (stereo unspecified) | 0.253 | 0.63
CNC(=S)NNC(=O)c1cccs1 | 0.254 | 0.645
C/C(=N\N=C1/NC(=O)CC(C(=O)O)S1)c1cccs1 (stereo unspecified) | 0.25 | 0.609
COc1cccc(NC(=O)CSc2ccccc2)c1 | 0.268 | 0.623
CC(C)(C)C(=O)Nc1ccc(-c2nc3ccc(Cc4ccc5nc(-c6ccc(NC(=O)C(C)(C)C)cc6)oc(=O)c5c4)cc3c(=O)o2)cc1 | 0.25 | 0.629
CC(C)[n+]1c2ccc(C(C)(C)C)cc2cc2cc(C(C)(C)C)ccc21 | 0.245 | 0.602
Cc1noc(C)c1C(=O)N1CCN(c2ncc(C(F)(F)F)cc2Cl)CC1 | 0.25 | 0.605
CC(=O)Nc1nonc1-c1nc2ccccc2n1Cc1ccccc1F | 0.248 | 0.615
O=C(C(c1ccccc1)c1ccccc1)N1CCc2ccccc21 | 0.244 | 0.6
N#CCN1CCN(CCC(=O)Nc2ccc(F)cc2)CC1 | 0.24 | 0.619
Cc1ccc2oc(-c3ccc(C)c(NC(=O)c4ccc(C)c([N+](=O)[O-])c4)c3)nc2c1 | 0.255 | 0.628
CCCC(CC(=O)O)(C(=O)O)c1ccccc1 (stereo unspecified) | 0.259 | 0.616
N#CC(NCc1ccccc1)c1ccc(Cl)c(Cl)c1 (stereo unspecified) | 0.25 | 0.626
C/C(CC(=O)Nc1ccccc1C)=N\NC(=O)COc1ccc(Br)cc1C | 0.239 | 0.63
O=C1c2cccc3cccc(c23)C(=O)N1CCO | 0.242 | 0.616

7 compounds picked at random from the list so far:
SMILES | plate-normalized OD600 growth (temperature: 15°C, 48 h) | plate-normalized OD600 growth (temperature: 37°C, 24 h)
CCCC(CC(=O)O)(C(=O)O)c1ccccc1 (stereo unspecified) | 0.259 | 0.616
Cc1ccc(Cl)cc1NC(=S)N(CCC#N)/N=C\c1ccc2c(c1)OCO2 | 0.227 | 0.611
CCOC(=O)c1ccc2nc(NC(=O)CSc3nc(C)cc(C)n3)sc2c1 | 0.254 | 0.613
COc1cccc(NC(=O)CSc2ccccc2)c1 | 0.268 | 0.623
Cc1ccc2oc(-c3ccc(C)c(NC(=O)c4ccc(C)c([N+](=O)[O-])c4)c3)nc2c1 | 0.255 | 0.628
CCn1nc(C)cc1C(=O)O | 0.259 | 0.636
CC(C)[n+]1c2ccc(C(C)(C)C)cc2cc2cc(C(C)(C)C)ccc21 | 0.245 | 0.602

Later entries.

SMILES | plate-normalized OD600 growth (temperature: 15°C, 48 h) | plate-normalized OD600 growth (temperature: 37°C, 24 h)
CC(C)CC(=O)NCc1ccc2c(c1)OCO2 | 0.239 | 0.61
N/C(=N/O)c1cnccc1C(F)(F)F | 0.279 | 0.653
COC(=O)Nc1ccc(SCC(=O)c2ccc(Cl)cc2)cc1 | 0.224 | 0.655
CC(C)(C)C1=NN(c2ccccc2)C(=O)C1 | 0.229 | 0.62
Cc1ccccc1-c1c(C#N)c(N)nc(C(C#N)c2nc3ccccc3s2)c1C#N (stereo unspecified) | 0.23 | 0.647
Cc1nc2ccccn2c1C(=O)NN=C1CCCCCC1 | 0.248 | 0.622
O=C1c2cccc3c(SCCO)ccc(c23)C(=O)N1CCc1ccccn1 | 0.265 | 0.634
CCc1c(-c2ccccc2)[nH]c2nc3c(c(=O)n(C)c(=O)n3C)n12 | 0.236 | 0.612
COc1ccccc1-n1c(Cc2ccc(Cl)cc2)n[nH]c1=S | 0.248 | 0.615
COc1ccc(C(=O)[C@@H]2[C@@H](c3cccnc3)C(C#N)(C#N)[C@H]3C=Cc4ccccc4N23)cc1 | 0.259 | 0.632
CCC(CC)=NNC(=O)CNC(=O)CNS(=O)(=O)c1ccc(C)cc1 | 0.236 | 0.593
Cc1cc(/C=N/NC(N)=S)c(C)n1-c1ccccc1 | 0.232 | 0.631
NS(=O)(=O)c1ccc(-n2ncc3ccccc3c2=O)cc1 | 0.214 | 0.646
COc1nc(N)nc(SC)n1 | 0.303 | 0.665
CC1CCN(C2=NC(=O)/C(=C\c3ccc(Cl)cc3)S2)CC1 | 0.233 | 0.613
COc1cccc(C2C3=C(CC(C)(C)CC3=O)OC(N)=C2[N+](=O)[O-])c1 (stereo unspecified) | 0.246 | 0.619
CC1=C(Br)C(=O)C(C)(Br)C(Br)C1=NS(=O)(=O)c1ccccc1 (stereo unspecified) | 0.24 | 0.623
COc1ccc(-n2c(-c3ccccc3)nnc2-c2ccc(Br)cc2)cc1 | 0.258 | 0.645
O=C(NCC(c1ccccc1)c1ccccc1)c1ccc(C#CC2(O)CCCCC2)cc1 | 0.244 | 0.623
CC(C)(C)OC(=O)C(C)(C)S(=O)(=O)c1ccc(Cl)cc1 | 0.279 | 0.618
Oc1c(Cl)cc(Cl)cc1C=Nc1ccc2c(c1)COCO2 | 0.238 | 0.601
CS/C(N)=N\N=C/c1c(F)cccc1Cl | 0.258 | 0.652
Cc1onc(-c2ccc(Cl)cc2)c1-c1ccnn1C(=O)NC(C)C | 0.256 | 0.633
COc1cccc(C=NC2CCN(Cc3ccccc3)CC2)c1OC | 0.226 | 0.619
COC(=O)c1cccc(Oc2nc(N3CCOCC3)nc(N3CCOCC3)n2)c1 | 0.251 | 0.609

SMILES | plate-normalized OD600 growth (temperature: 15°C, 48 h) | plate-normalized OD600 growth (temperature: 37°C, 24 h)
CCOc1cc(/C=N/n2cnc3sc4c(c3c2=O)CCCC4)cc(Br)c1OCc1ccc(Cl)cc1 | 0.245 | 0.619
Cc1ccc(C(=O)c2sc3nc(-c4cccs4)cc(C(F)(F)F)c3c2N)cc1 | 0.239 | 0.623
O=C1C2C3c4ccccc4C(c4ccccc43)C2C(=O)N1c1ccc(F)cc1 (stereo unspecified) | 0.248 | 0.643
CCN1C(=O)CC(C(=O)Nc2ccc(F)cc2)SC1=Nc1cccc(OC)c1 (stereo unspecified) | 0.237 | 0.62
CC(C)=NN(C(=O)c1ccccc1)C(C)(C)C | 0.249 | 0.663
NCCCCCCCNC(=O)c1cc([N+](=O)[O-])ccc1C(=O)O | 0.239 | 0.58
CCC(Cc1ccccc1)NC(=O)C(CC)c1ccc(CC(C)C)cc1 (stereo unspecified) | 0.231 | 0.629
COc1cc2c(cc1OC)CC(=O)OC2 | 0.244 | 0.606
O=C(OC1CCCCC1)c1ccc(NC(=O)c2ccco2)cc1 | 0.262 | 0.611
Nc1nc(=Nc2ccccc2)n2c(n1)sc1ccccc12 | 0.243 | 0.61
Cc1ccc(C=Nc2ccc(-c3ccc(N=Cc4ccc(C)o4)c(C)c3)cc2C)o1 | 0.224 | 0.622
O=C(NCCSC1CCCCC1)c1ccco1 | 0.221 | 0.633
CCOC(=O)CNc1cccc(C(F)(F)F)c1 | 0.227 | 0.612
CCOc1ccc(NC(=O)CC2S/C(=N\N=C\c3ccc(C)s3)NC2=O)cc1 (stereo unspecified) | 0.222 | 0.624
CC(C)(C)OC(=O)NCc1n[nH]c(=S)n1-c1ccccc1 | 0.242 | 0.609
CSc1nsc(N/N=C(/C)c2ccc(O)c(O)c2)c1C#N | 0.233 | 0.621
CCCS/C(N)=N\N=C\c1cc(C)ccc1O | 0.258 | 0.613
COC(=O)c1cc(OC)c(OC)cc1NC(=O)C1CC1 | 0.254 | 0.611
O=c1[nH]cnc2ccc(NC(=S)NCc3ccco3)cc12 | 0.243 | 0.614
COC(=O)C1(C(F)(F)F)N=C2C=CC(Br)=CN2C(c2ccccc2)=N1 (stereo unspecified) | 0.249 | 0.598
COC(=O)CCC(=O)Nc1cc(Cl)ccc1Cl | 0.245 | 0.604
COC(=O)c1cc(OC)c(OC)cc1NC(=O)Nc1cc(Cl)cc(Cl)c1 | 0.25 | 0.597
N#CCS(=O)(=O)c1cccs1 | 0.217 | 0.626

From the supplement of paper PMC4371806
